Residue numbers refer to the chain shown, from its start. For some of these results: Weaker means in comparison with the reference protein, sequence or condition of that experiment. Protein sequences can lack the tags named with them. For some of these results: The exact form of at least one protein or probe is not confirmed. For some of these results: At least one verdict rests on a figure or table, not on a statement of the authors.
Assays:
Assay in all cases: EMSA
[1] = biological target: T1, RRP6 (Lactiplantibacillus plantarum 163) (UniProt F9UPR2); conditions: EMSA: 10 mM HEPES pH 7.9, 0.1 mM spermidine, 0.4 mM MgCl2, 50 mM NaCl, 0.1 mM ZnCl2, 0.4 mM DTT, 8% glycerol, 37 °C 30 min, 50 ng FAM probe, 4% gel; recombinant protein; label: FAM
T1 sequence: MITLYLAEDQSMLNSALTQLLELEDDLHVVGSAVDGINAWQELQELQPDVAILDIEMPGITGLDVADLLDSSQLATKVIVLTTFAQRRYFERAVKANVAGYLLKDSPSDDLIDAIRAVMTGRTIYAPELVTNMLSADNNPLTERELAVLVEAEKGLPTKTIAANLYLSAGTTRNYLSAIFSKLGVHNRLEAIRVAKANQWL

[2] = biological target: T2, RRP6-ΔQ73 Q73A (Lactiplantibacillus plantarum 163) (UniProt F9UPR2); conditions: weakest of the four mutants, some unbound probe remains; EMSA: 10 mM HEPES pH 7.9, 0.1 mM spermidine, 0.4 mM MgCl2, 50 mM NaCl, 0.1 mM ZnCl2, 0.4 mM DTT, 8% glycerol, 37 °C 30 min, 50 ng FAM probe, 4% gel; recombinant protein; residues 1-201; protein details: His-tag; label: FAM
T2 sequence (looked up): T1 sequence with I60M, L68R, D70A, Q73A

[3] = biological target: T3, RRP6-ΔR144 R144A (Lactiplantibacillus plantarum 163) (UniProt F9UPR2); conditions: EMSA: 10 mM HEPES pH 7.9, 0.1 mM spermidine, 0.4 mM MgCl2, 50 mM NaCl, 0.1 mM ZnCl2, 0.4 mM DTT, 8% glycerol, 37 °C 30 min, 50 ng FAM probe, 4% gel; recombinant protein; residues 1-201; protein details: His-tag; label: FAM
T3 sequence (looked up): T1 sequence with I60M, L68R, D70A, R144A

[4] = biological target: T4, RRP6-ΔT171 T171A (Lactiplantibacillus plantarum 163) (UniProt F9UPR2); conditions: EMSA: 10 mM HEPES pH 7.9, 0.1 mM spermidine, 0.4 mM MgCl2, 50 mM NaCl, 0.1 mM ZnCl2, 0.4 mM DTT, 8% glycerol, 37 °C 30 min, 50 ng FAM probe, 4% gel; recombinant protein; residues 1-201; protein details: His-tag; label: FAM
T4 sequence (looked up): T1 sequence with I60M, L68R, D70A, T171A

[5] = biological target: T5, RRP6-ΔY175 Y175A (Lactiplantibacillus plantarum 163) (UniProt F9UPR2); conditions: EMSA: 10 mM HEPES pH 7.9, 0.1 mM spermidine, 0.4 mM MgCl2, 50 mM NaCl, 0.1 mM ZnCl2, 0.4 mM DTT, 8% glycerol, 37 °C 30 min, 50 ng FAM probe, 4% gel; recombinant protein; residues 1-201; protein details: His-tag; label: FAM
T5 sequence (looked up): T1 sequence with I60M, L68R, D70A, Y175A

| Sequence | binding result [1] | binding result [2] | binding result [3] | binding result [4] | binding result [5] |
| --- | --- | --- | --- | --- | --- |
| ACGTTAATAGATAGTTGGC (double strand) [Site I (CK1)] | binds | binds more weakly | binds more weakly | binds more weakly | binds more weakly |
| TAATTGGTGAGGGGAGTACAAG (double strand) [Site II (CK2)] | binds | binds more weakly | binds more weakly | binds more weakly | binds more weakly |
